Results are given in words; binding and its absence hold for the method and conditions named. Binding seen in cells or lysates may run through a third protein. These calls come from enrichment with a bait or labelling near it, and not all partners need be listed.
Target: GFP-tagged AfRom2 CNH domain expressed in A. fumigatus (gpd-gfp-rom2 (2725-3792)) (Aspergillus fumigatus) (UniProt Q4WUI2)
Assay: affinity purification with mass spectrometry; GFP-Trap resin with lysate of the A. fumigatus strain expressing gpd-gfp-cnh, gpd-gfp strain as control; washes with 350 mM NaCl; eluted proteins analysed by LC-MS

B1: actin-related protein 4 (endogenous, A. fumigatus) (protein, UniProt Q4WHA3 1-466)
chain: MLIAICVQDEISAIVLDPGFSTTRAGFAGEDTPKSVIPTYYGKYTYEAQEKLIFGDDIFVTPRPGLSIHNPMGRDGVVEDWDMAEKVWEYSFTSRLTGPKAGNPFQNGLNDVANGELPSEMEGVETEEKPLADSPLLMTECGWNPTKAREKTVEIAMEKWGTPAFYLARNGVLAAFAAGKASALVVDVGASNISVTPVHDGMILKRGVQHSPLGGDYISSQLRALFKTNSPQPITITPHYLVASKTAVDAGQPAQAKYKTFPPDKAPDASYRTLMEERTLSEFKECVVQVWPGPNKLSATGPNGVSNEEVAKSSPGRPFEFPDGYNQVFGIDRYRVVESLFDAKAAIPDPESVFPAPTQAQTVPELIKAALNGVDVDVRPHLLANVVVTGASSLLYGFTDRLNQELMQSYPGPRVRISASGNTAERKFGSWVGGSILASLGTFHQMWISKKEYDEHGPNIVEKRCK
binding: binds

Reference: PMC8488606
